Article PMC4513131
These are yes or no findings as the source states them, for the method shown. In cells and extracts the contact can be indirect. Some results given as binding are weak or reduced against the parent protein; the word gives no strength. Tags and fused reporters may be left off the sequences shown.

Protein sequences, listed by entry. Tags and fused reporters are not part of them. Residues count along the entry.
UniProt P43220, residues 24-463: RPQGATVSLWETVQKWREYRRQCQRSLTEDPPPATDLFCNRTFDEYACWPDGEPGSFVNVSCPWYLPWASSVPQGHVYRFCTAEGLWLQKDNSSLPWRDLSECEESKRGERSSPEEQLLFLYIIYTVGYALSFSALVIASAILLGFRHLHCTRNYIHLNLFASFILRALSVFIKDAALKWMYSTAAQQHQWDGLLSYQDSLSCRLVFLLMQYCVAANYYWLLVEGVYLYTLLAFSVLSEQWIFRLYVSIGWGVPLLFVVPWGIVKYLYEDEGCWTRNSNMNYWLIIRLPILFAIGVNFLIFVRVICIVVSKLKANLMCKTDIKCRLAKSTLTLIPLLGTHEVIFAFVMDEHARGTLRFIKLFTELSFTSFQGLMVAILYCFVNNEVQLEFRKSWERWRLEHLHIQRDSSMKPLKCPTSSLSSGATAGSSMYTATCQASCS

Key:
[1] = target: T1, FLAG-tagged ZIP6 (UniProt Q13433); test: co-IP; tagged plasmids cotransfected into MIN6 cells; anti-FLAG coimmunoprecipitation; 2.5% input and 50% eluent loaded; immunoblot with anti-HA or anti-V5
T1 sequence: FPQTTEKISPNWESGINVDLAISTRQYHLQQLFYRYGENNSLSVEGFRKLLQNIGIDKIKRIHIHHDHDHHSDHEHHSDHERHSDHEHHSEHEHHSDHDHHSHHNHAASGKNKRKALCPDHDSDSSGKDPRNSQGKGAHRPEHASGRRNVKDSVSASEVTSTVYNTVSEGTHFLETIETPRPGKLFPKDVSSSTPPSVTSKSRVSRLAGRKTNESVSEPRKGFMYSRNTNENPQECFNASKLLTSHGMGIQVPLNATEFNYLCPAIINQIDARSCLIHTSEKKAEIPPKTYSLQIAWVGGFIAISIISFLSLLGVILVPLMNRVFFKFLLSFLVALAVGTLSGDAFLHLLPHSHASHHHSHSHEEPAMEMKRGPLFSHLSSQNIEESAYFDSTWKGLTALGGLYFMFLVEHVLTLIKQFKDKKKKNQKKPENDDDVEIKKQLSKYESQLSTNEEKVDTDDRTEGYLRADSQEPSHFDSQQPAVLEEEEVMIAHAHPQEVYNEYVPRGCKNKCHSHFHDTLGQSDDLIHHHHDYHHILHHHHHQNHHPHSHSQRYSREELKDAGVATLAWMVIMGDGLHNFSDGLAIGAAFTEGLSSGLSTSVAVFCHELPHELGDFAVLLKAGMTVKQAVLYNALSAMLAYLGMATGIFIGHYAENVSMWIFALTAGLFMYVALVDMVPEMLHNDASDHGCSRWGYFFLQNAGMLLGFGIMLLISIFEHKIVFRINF

[2] = target: FLAG-tagged GLP-1R (UniProt P43220); test: as above

## His-V5-tagged GLP-1R (from UniProt P43220 24-463) (receptor)
[1]
  binding: binds

B1: HA-tagged ZIP7 (protein, UniProt Q92504 1-469)
chain: MARGLGAPHWVAVGLLTWATLGLLVAGLGGHDDLHDDLQEDFHGHSHRHSHEDFHHGHSHAHGHGHTHESIWHGHTHDHDHGHSHEDLHHGHSHGYSHESLYHRGHGHDHEHSHGGYGESGAPGIKQDLDAVTLWAYALGATVLISAAPFFVLFLIPVESNSPRHRSLLQILLSFASGGLLGDAFLHLIPHALEPHSHHTLEQPGHGHSHSGQGPILSVGLWVLSGIVAFLVVEKFVRHVKGGHGHSHGHGHAHSHTRGSHGHGRQERSTKEKQSSEEEEKETRGVQKRRGGSTVPKDGPVRPQNAEEEKRGLDLRVSGYLNLAADLAHNFTDGLAIGASFRGGRGLGILTTMTVLLHEVPHEVGDFAILVQSGCSKKQAMRLQLLTAVGALAGTACALLTEGGAVGSEIAGGAGPGWVLPFTAGGFIYVATVSVLPELLREASPLQSLLEVLGLLGGVIMMVLIAHLE
[2]
  binding: binds
